Data from article PMC9117376.
No constants are given. Whether binding was seen depends on the method and setting. Binding seen in cells or lysates may run through a third protein. Some entries that bind do so weakly or less than the wild type.

By UniProt entry, the sequences of proteins in these tests, tags left out.
UniProt Q91VW9: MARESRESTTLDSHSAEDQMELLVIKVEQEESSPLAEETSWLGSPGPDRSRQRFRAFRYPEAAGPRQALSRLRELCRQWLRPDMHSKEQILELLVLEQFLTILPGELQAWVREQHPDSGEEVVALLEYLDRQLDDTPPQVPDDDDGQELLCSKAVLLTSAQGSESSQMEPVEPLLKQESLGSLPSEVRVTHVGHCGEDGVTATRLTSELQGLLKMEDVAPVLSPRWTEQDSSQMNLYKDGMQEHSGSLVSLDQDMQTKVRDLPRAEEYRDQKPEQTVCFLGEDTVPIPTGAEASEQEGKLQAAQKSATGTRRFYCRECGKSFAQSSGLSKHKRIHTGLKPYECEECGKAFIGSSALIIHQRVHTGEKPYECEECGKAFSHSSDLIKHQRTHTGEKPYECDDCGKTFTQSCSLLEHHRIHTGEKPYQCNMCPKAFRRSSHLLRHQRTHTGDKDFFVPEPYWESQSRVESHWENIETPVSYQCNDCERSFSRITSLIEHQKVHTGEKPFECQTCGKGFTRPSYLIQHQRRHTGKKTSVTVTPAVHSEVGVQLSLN
UniProt P17679: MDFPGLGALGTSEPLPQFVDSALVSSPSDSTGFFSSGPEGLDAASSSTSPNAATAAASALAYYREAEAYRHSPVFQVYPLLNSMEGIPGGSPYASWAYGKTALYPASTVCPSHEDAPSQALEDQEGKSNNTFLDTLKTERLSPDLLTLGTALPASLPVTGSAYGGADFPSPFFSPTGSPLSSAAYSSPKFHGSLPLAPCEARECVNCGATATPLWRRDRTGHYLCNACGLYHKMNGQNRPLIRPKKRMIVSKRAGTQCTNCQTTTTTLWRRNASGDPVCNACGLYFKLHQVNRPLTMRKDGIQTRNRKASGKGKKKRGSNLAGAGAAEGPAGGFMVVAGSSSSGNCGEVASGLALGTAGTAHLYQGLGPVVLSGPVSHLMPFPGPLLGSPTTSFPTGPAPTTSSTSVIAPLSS

Molecular target: Zkscan3 fused with a His-tag and GFP (Zkscan3-his-GFP) (UniProt Q91VW9)
Test: co-IP; Called co-immunoprecipitation by the paper; lysate (legend: nuclear extract) of MEL cells expressing Zkscan3-his-GFP, 1 mg/mL, incubated with Ni-NTA agarose overnight at 4 °C, beads washed six times with lysing buffer, western blot; empty Ni-NTA beads as negative control

binding: binds
Sequence: GATA binding factor 1 (GATA1) (from UniProt P17679 1-413)
